# Some results were stated once for a whole list of compounds, not compound by compound.
# Tested on: human saphenous vein smooth muscle cells (HSV-SMC)
# Format: cell-based
# Details: drug immobilized with ethanol onto bromobenzenediazonium coated 316L discs; elution in DMEM + 20% FBS over 10 days
# Protocol: A proliferation assay was performed using human saphenous vein smooth muscle cells (HSV-SMC) with cells at passage 3-5. HSV-SMC were established in 96-well plates for 24 hours then serum starved for 48 hours. […] A positive control (100%) was set for cells exposed to DMEM supplemented with 20% FBS only while a negative control (0%) was set for cells exposed to only unsupplemented DMEM. Cells were stimulated for 72 hours with the anti-proliferative drug containing culture media. A solution of [3-(4,5-dimethylthiazol-2-yl)-5-(3-carboxymethoxyphenyl)-2-(4-sulfophenyl)-2H-tetrazolium](MTS, a cell proliferation marker) is then added onto the cells for 3 hours. Absorbance at 490 nm is recorded using a 96-well plate reader.
row,SMILES,period of time of effective inhibition of HSV-SMC proliferation by sustained release from discs
1,COc1cc2c(c(OC)c1OC)-c1ccc(OC)c(=O)cc1[C@@H](NC(C)=O)CC2 [colchicine],up to 10 days
2,CO[C@H]1C[C@@H]2CC[C@@H](C)[C@@](O)(O2)C(=O)C(=O)N2CCCC[C@H]2C(=O)O[C@H]([C@H](C)C[C@@H]2CC[C@@H](O)[C@H](OC)C2)CC(=O)[C@H](C)/C=C(\C)[C@@H](O)[C@@H](OC)C(=O)[C@H](C)C[C@H](C)/C=C/C=C/C=C/1C [rapamycin],up to 10 days
